# According to patent publication US6495144:
# The chains behind the UniProt entries cited, without tags or fusion partners.
# UniProt Q06330: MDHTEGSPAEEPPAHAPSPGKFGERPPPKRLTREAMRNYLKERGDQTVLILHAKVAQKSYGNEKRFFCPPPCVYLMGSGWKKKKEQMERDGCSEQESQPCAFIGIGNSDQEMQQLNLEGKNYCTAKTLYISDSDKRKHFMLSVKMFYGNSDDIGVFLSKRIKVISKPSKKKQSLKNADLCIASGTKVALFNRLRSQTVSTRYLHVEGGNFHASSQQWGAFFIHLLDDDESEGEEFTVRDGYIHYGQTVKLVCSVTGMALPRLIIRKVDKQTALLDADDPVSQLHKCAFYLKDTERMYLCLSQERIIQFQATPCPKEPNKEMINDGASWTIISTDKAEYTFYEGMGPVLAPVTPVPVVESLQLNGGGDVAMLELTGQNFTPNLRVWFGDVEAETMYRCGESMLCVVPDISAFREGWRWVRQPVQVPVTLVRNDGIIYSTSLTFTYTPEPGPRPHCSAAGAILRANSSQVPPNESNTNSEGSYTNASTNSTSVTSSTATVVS
# No constants are given. Whether binding was seen depends on the method and setting. Some entries that bind do so weakly or less than the wild type.
# Experiments:
# CBF1/RBPJk [1] = molecular target: CBF1/RBPJk (UniProt Q06330); assay: GST affinity assay, GST-EBNA2 (252-425) and 35S-labeled in vitro translated CBF1
# CBF1/RBPJk [2] = molecular target: CBF1/RBPJk (UniProt Q06330); assay: EMSA competition and GST affinity assay
binder,measurement,setting,value
PSGPPWWPPI [CR6 peptide comprised of EBNA2 amino acids 318-327],binding,CBF1/RBPJk [1],binds
same,binding,CBF1/RBPJk [2],binds
